Measurements reported in US20050208511A1, “DMBT1 as a clinical marker and uses thereof” (priority 2003, published 2005).
For at least one compound, name, drawing or mass did not settle the structure.

Key:
uterus = test: uterine weight in 22-day-old female rats; assay type: in vivo, Sprague Dawley rats; conditions: compound alone, three days, estrone 70 μg/kg/day
Protocol: Ten groups of 22-day-old female Sprague Dawley rats (three animals per group) were used to evaluate the effects of estrone, tamoxifen, raloxifene, and ICI 182780 on DMBT1 expression in the uterus. The following groups of rats were treated for three days as follows:
All treatments were delivered orally in 0.5% Methocel. After treatment the animals were euthanized and the uteri were collected, weighed, frozen in liquid nitrogen, and stored at −20° C. RNA was purified from the frozen uteri using 1.0 mL of TRIzol Reagent (Invitrogen) and a PowerGen 25 tissue homogenizer (Fisher Scientific), according to the manufacturer's instructions.
In rats, uteri increase in size under the proliferative influence of estrogen, and this increase in size can be measured by weighing the tissues.
Administration of the treatments and collection of tissue samples were carried out according to the procedure described in Example 2. RNA was purified, blotted and hybridized to radioactively labeled rat ebnerin cDNA as in described in Example 2.

DMBT1 = test: quantitative RT-PCR of DMBT1 in uterus of ovariectomized rats; assay type: in vivo, Wistar rats; conditions: OVX rats, one day oral treatment, RNA about 24 hr after a single dose; maximal at 0.3 mg/kg (FIG. 3B)
Protocol: Six weeks old ovariectomized Wistar rats (Charles River, Wilmington, Mass.) were dosed for either one day or six weeks with vehicle or test compounds. All treatments were delivered orally, once daily, in 0.5% methylcellulose or sesame oil. After treatment, the uteri were removed, total RNA was purified from the tissues using TRIzol reagent (Invitrogen, Carlsbad, Calif.) as directed by the manufacturer.
Quantitative reverse transcription-polymerase chain reactions (RT-PCR) of DMBT1 from rat RNA samples were carried out using a One-Step RT-PCR Master Mix Kit (Applied Biosystems, Foster City, Calif.) and an ABI Prism 7000 Sequence Detection System (Applied Biosystems), as described by the manufacturer. Commercially available primers and FAM-labeled MGB probes for human and rat DMBT1 (catalog numbers Hs00244827_ml and Rn00575705_ml, respectively) were obtained from Applied Biosystems (Foster City, Calif.). Messenger RNA levels were normalized against 18S ribosomal RNA levels determined using primers and a VIC- and TAMRA-labeled probe from the same vendor.

With C[C@]12CC[C@@H]3c4ccc(O)cc4CC[C@H]3[C@@H]1CCC2=O [estrone] the uterine weight (uterus; oral, others 1 mg/kg/day, vs control (FIG. 1)) was “doubles the uterine weight” and the “uterine weight, corrected for body weight” value (uterus; SERMs 1.4 mg/kg/day (FIG. 4)) was “more than doubles uterine weight”.
In the case of C#C[C@]1(O)CC[C@H]2[C@@H]3CCc4cc(O)ccc4[C@H]3CC[C@@]21C [Ethinyl estradiol, ethinyl estradiol], the “induction of DMBT1 mRNA levels” value (DMBT1) was “six-fold”.
